Experimental data published in PubChem BioAssay AID624297 (National Center for Advancing Translational Sciences (NCATS), 2012).
About 6,200 (1.8%) of roughly 340,000 compounds were called active. The inconclusive results got no clear call from the source; some entries with a clear call stand among them for comparison. The call rests on the fitted dose curve; in most records, active means well fitted activation curve with a large enough effect; inconclusive means small, poorly fitted or top-dose-only effect; inactive means no such curve, though single readings can be large or run the other way. Potencies of inconclusive entries are doubtful fits and often do not repeat.

Experiment: A quantitative high throughput screen for small molecules that induce DNA re-replication in SW480 colon adenocarcinoma cells. Further: nearly all actives have a fitted effect of over 55% in size.
Details: Hoechst DNA content imaging, 48 h; series mostly up to 46.1 µM
Procedure, shortened: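 Image-based read-out: total Hoechst fluorescence of nuclei (405 nm excitation, 500-530 nm emission), with hits raising the fraction of high-intensity nuclei. SW480 colon cells incubated 48 hr with compounds at 37 C.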
Potency means the concentration at half of the fitted maximal effect.

| Structure (SMILES) | Potency |
| --- | --- |
| Cc1noc(C)c1CSCC(=O)Oc1ccc(N(C)S(=O)(=O)c2ccc(Cl)cc2)cc1 | inactive |
| COc1cc(C2c3cc4c(cc3OC(C)(N3CCCC3)C2C)OCO4)cc(OC)c1OC (stereo not given) | active: 5.17 µM |
| O=C(Nc1ccc2c(c1)OCO2)c1ccc(N2CCCC2)c([N+](=O)[O-])c1 | inactive |
| C/C(=N/N=C(\C)c1ccccc1O)c1ccccc1O | inactive |
| O=C(NC(=S)N1CCOCC1)c1cc2ccccc2o1 | inactive |
| COc1cccc(/C=C/c2nc3c(cnn3-c3ccccc3)c(=O)[nH]2)c1 | inconclusive: 6.51 µM [activator, single point] |
| Cc1cccc(N2CCN(C(=S)Nc3ccc4nc(N5CCN(C)CC5)cc(C)c4c3)CC2C)c1 (stereo not given) | active: 18.4 µM |
| CCOC(=O)c1ccccc1NC(=O)CSc1nc2ccncc2[nH]1 | inconclusive: 0.651 µM [activator, full curve] |
| CCCCn1c(SCC(=O)Nc2sc3c(c2C(N)=O)CCC3)nnc1-c1ccccc1 | inactive |
| Nc1c(-c2ccccc2)c(CN2CCOCC2)nn1-c1ccccc1 | inconclusive: 29.1 µM [activator, single point] |
| FC(F)(F)c1cccc(-c2nc3nc(Cl)c(Cl)nc3[nH]2)c1 | inconclusive: 25.9 µM [activator, single point] |
| Cc1ccc(-c2csc3ncnc(SCc4ccc(C(=O)O)cc4)c23)cc1 | inactive |
| O=c1[nH]cnc2c1ncn2[C@@H]1O[C@H](CO)[C@@H](O)[C@H]1O | inactive |
| COc1ccccc1CCNC(=O)c1ccc(NC(=O)CC2SC(N3CCCC3)=NC2=O)cc1 (stereo not given) | inactive |
| O=C1/C(=C/c2cccc(Cl)c2)SC(=S)N1CCC(=O)N1CCCCC1CCO (stereo not given) | inconclusive: 29.1 µM [activator, single point] |
| O=c1[nH]c2cnn(-c3ccccc3)c2c(=O)n1O | inconclusive: 25.9 µM [activator, single point] |
| NNC(=O)c1ccc(Cn2cccn2)o1 | active: 2.31 µM |
| O=C(c1ccc(CSCc2ccccc2F)o1)N1CCN(c2ccc(N3CCOCC3)nn2)CC1 | inactive |
| CCCC(=O)NC1CCc2cc(OC)c(OC)c(OC)c2-c2ccc(OC)c(=O)cc21 (stereo not given) | active: 0.0046 µM |
| O=C(Nc1ccccc1N1CCN(C(=O)c2ccccc2)CC1)c1ccc([N+](=O)[O-])o1 | inconclusive: 23.1 µM [activator, single point] |
| Cc1ccc(CN2CCCCC2C(=O)Nc2ccc(Oc3cccnc3)cc2)o1 (stereo not given) | active: 16.4 µM |
| CCN(CC(=O)NCc1cccs1)C(=O)c1ccc(NS(=O)(=O)c2ccc(F)cc2)cc1 | inactive |
| CCc1nc2ccccc2n1Cc1ccc(OC)c(OC)c1 | inactive |
| COc1ccc(OC)c(Nc2nc(N)nc(-c3cc4ccccc4o3)n2)c1 | inconclusive: 29.1 µM [activator, single point] |
| CCCC(=O)NC(Nc1cccc(C(F)(F)F)c1)C(Cl)(Cl)Cl (stereo not given) | inconclusive: 20.6 µM [activator, single point] |

| Structure (SMILES) | Potency |
| --- | --- |
| O=C(Nc1nccs1)c1cc(-c2ccccc2)nn1-c1ccccc1 | inconclusive: 20.6 µM [activator, partial curve, poor fit] |
| CCCn1c(=S)[nH]c2sc3c(c2c1=O)CCCC3 | inconclusive: 29.1 µM [activator, single point] |
| O=[N+]([O-])c1ccc(N/N=C/c2cccnc2)cc1 | inconclusive: 29.1 µM [activator, partial curve, poor fit] |
| Cc1ccccc1Nc1nc(N)nc(CCl)n1 | inconclusive: 2.91 µM [activator, full curve] |
| Nc1nc(N2CCN(C/C=C/c3ccccc3)CC2)nc2ccccc12 | inactive |
| O=C(C1CC(=O)N(C2CCCC2)C1)N1CCC(Cc2ccccc2)CC1 (stereo not given) | inactive |
| Cc1cc(CNC(=S)Nc2cccc(Cl)c2Cl)nn1C | inconclusive: 0.199 µM [activator, partial curve, poor fit] |
| Cc1ccc(-c2nc(CS(=O)(=O)CC(=O)N3CCc4ccccc4C3)c(C)o2)cc1 | inactive |
| CC(=O)Nc1cccc(C(=O)/C=C/c2ccc(C)cc2)c1 | inconclusive: 25.9 µM [activator, single point] |
| O=C1CC(c2cccs2)c2ccc3ccccc3c2N1 (stereo not given) | inconclusive: 16.4 µM [activator, partial curve, poor fit] |
| O=C(CSc1nn(-c2ccc(F)cc2)c(=S)s1)N1CCN(C(=O)c2ccco2)CC1 | inconclusive: 9.2 µM [activator, single point] |
| CCN(CC)CCCN=Cc1c(-c2ccccc2)[nH]n(-c2nc3ccccc3s2)c1=O | inactive |
| CSc1n[nH]c(NCc2cccs2)n1 | inactive |
| Cc1ncc(CO)c(/C=N/NC(=O)c2ccoc2C)c1O | inconclusive: 18.4 µM [activator, single point] |
| O=C(Nc1ccc2c(c1)Cc1ccccc1-2)c1ccncc1 | inactive |
| CCOC(=O)c1ccc(NC(=O)N2CCN(S(C)(=O)=O)CC2)cc1 | inactive |
| CCC(C)[C@H](NC(=O)C1CCC(CNC(=O)[C@@H]2CCCN2C(=O)OC(C)(C)C)CC1)C(=O)O (stereo not given in full) | inactive |
| CCCCOC(=O)/C=C/c1ccc(OC(=O)OC)c(OC(=O)OC)c1 | inconclusive: 29.1 µM [activator, partial curve, poor fit] |
| O=C(Nc1ccc(S(=O)(=O)N2CCOCC2)cc1)c1cc(S(=O)(=O)N2CCOCC2)ccc1Cl | inactive |
| COCCCNC(=S)Nc1cccc(SC)c1 | inactive |
| COc1cccc(-c2nc(-c3ccc4c(c3)-c3ccccc3S4(=O)=O)c(-c3ccccc3)[nH]2)c1OC | inconclusive: 7.31 µM [activator, single point] |
| CC(C)(CN1CCCC1)NC(=O)C1CCC(=O)N(CCCN2CCOCC2)C1 (stereo not given) | inactive |
| CC(=O)N(c1nc(/C=C\C(=O)O)cs1)c1ccccc1F | inactive |
| Oc1c(N=NC(=S)Nc2ccccc2F)c2ccccc2n1Cc1cccc(Cl)c1 | inactive |
| Cc1ccc(C(=O)Oc2coc(CSc3nnc(NC(=O)c4cccs4)s3)cc2=O)cc1 | inconclusive: 25.9 µM [activator, partial curve, poor fit] |

A second format for two compounds above.
Structure (SMILES) | Potency
CCCn1c(=S)[nH]c2sc3c(c2c1=O)CCCC3 | inconclusive: 29.1 µM [activator, single point]
O=[N+]([O-])c1ccc(N/N=C/c2cccnc2)cc1 | inconclusive: 29.1 µM [activator, partial curve, poor fit]
